Test results reported in paper PMC10908869.
Results are given in words; binding and its absence hold for the method and conditions named. In cells and extracts the contact can be indirect. Some binding calls cover weakened binding; strength is not graded here.

The chains behind the UniProt entries cited, without tags or fusion partners. Residues count along the entry.
UniProt O00429: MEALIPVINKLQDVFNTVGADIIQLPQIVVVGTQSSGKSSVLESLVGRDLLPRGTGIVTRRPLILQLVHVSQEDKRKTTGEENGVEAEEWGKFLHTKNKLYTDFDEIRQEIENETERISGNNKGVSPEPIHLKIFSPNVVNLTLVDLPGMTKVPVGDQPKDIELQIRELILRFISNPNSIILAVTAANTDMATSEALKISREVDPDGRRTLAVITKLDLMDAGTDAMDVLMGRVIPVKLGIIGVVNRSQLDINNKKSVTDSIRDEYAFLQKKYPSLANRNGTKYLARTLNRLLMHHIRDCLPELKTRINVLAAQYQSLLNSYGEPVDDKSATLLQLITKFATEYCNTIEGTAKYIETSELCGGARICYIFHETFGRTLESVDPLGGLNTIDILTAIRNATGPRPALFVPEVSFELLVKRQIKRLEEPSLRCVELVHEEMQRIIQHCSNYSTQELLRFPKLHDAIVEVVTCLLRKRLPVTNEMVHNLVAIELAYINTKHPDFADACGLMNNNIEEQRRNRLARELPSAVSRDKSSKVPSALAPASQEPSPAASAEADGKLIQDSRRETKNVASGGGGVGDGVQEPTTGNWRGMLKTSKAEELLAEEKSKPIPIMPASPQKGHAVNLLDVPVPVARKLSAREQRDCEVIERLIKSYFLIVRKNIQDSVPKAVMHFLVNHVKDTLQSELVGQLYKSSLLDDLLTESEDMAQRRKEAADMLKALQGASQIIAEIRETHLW
UniProt P05161, residues 1-157: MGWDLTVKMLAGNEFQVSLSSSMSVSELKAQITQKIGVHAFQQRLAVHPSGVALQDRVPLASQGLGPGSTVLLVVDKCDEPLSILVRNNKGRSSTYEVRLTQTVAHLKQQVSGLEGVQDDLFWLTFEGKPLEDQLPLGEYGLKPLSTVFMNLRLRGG
UniProt Q14258: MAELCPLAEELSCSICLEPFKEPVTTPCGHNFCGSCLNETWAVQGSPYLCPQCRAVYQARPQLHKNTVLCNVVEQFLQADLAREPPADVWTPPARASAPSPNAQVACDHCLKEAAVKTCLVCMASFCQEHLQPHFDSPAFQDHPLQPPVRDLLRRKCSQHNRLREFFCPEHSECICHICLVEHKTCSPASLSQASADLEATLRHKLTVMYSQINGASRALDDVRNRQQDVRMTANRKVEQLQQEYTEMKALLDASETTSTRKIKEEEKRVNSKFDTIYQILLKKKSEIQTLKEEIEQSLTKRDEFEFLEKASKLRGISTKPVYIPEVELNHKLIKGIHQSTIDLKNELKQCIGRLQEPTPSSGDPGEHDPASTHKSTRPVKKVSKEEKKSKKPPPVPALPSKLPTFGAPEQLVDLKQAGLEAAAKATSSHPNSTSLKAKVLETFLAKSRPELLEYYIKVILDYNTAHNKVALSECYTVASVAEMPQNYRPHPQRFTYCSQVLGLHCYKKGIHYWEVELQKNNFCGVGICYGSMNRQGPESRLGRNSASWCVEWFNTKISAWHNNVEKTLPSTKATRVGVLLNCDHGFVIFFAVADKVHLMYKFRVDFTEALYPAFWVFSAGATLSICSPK

Tests used:
Test in all cases: co-IP; endogenous proteins in A549 cell lysates; immunoprecipitation followed by Western blot
[1] = target: Dynamin related protein 1 (DRP1) (human (endogenous in A549)) (UniProt O00429)
[2] = target: interferon-stimulated gene 15 (ISG15) (human (endogenous in A549)) (UniProt P05161)
[3] = target: T1, HERC5 (human (endogenous in A549)) (UniProt Q9UII4)
T1 sequence: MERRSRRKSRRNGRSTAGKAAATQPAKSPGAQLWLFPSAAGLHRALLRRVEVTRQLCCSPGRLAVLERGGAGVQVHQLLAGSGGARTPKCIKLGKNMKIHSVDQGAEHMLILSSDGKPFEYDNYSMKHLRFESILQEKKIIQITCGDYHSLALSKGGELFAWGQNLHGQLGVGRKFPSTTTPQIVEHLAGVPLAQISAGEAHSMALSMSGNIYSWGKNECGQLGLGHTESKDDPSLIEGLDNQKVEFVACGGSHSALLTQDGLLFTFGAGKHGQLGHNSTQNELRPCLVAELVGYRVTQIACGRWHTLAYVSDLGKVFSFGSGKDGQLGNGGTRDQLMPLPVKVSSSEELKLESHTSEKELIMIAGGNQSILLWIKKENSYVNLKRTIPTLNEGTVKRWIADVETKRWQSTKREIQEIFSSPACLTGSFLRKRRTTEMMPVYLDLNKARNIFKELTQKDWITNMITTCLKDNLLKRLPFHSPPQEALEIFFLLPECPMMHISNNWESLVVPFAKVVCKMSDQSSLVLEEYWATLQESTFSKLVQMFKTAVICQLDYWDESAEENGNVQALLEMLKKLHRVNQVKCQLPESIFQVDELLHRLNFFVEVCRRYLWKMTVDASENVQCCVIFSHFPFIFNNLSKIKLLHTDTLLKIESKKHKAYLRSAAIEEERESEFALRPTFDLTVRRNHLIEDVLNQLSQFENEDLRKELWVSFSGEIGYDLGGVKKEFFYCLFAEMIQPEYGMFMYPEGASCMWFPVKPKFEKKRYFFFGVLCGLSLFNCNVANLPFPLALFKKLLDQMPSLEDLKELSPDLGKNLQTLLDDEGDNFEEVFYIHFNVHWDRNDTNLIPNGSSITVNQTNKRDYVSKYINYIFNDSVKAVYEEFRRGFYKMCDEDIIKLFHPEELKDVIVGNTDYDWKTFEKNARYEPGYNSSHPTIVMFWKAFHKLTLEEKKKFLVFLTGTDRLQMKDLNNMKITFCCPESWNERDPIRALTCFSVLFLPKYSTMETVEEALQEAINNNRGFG

Substance | binding [1] | binding [2] | binding [3]
TRIM25 (tripartite motif containing 25) (from UniProt Q14258 1-630) (enzyme) | binds | – | –
Dynamin related protein 1 (DRP1) (from UniProt O00429 1-736) | – | binds | binds
